Changes are numbered by the printed parent chain. These are yes or no findings as the source states them, for the method shown. In cells and extracts the contact can be indirect. Some results given as binding are weak or reduced against the parent protein; the word gives no strength. For part of these data: Where a sequence is shown, tags or fusion partners need not be part of it.
Legend:
Assay in all cases: co-IP; Stu2-HA precipitated with anti-HA magnetic beads from 67 mg cryo-milled yeast extract in PEM buffer (80 mM PIPES, 1 mM EGTA, 1 mM MgCl2, pH 6.8); precipitate blotted with anti α-tubulin (anti-Tub1) as surrogate for αβ-tubulin
[1] = target: T1, Stu2-K252,469R-3xHA (S. cerevisiae) (UniProt P46675)
T1 sequence: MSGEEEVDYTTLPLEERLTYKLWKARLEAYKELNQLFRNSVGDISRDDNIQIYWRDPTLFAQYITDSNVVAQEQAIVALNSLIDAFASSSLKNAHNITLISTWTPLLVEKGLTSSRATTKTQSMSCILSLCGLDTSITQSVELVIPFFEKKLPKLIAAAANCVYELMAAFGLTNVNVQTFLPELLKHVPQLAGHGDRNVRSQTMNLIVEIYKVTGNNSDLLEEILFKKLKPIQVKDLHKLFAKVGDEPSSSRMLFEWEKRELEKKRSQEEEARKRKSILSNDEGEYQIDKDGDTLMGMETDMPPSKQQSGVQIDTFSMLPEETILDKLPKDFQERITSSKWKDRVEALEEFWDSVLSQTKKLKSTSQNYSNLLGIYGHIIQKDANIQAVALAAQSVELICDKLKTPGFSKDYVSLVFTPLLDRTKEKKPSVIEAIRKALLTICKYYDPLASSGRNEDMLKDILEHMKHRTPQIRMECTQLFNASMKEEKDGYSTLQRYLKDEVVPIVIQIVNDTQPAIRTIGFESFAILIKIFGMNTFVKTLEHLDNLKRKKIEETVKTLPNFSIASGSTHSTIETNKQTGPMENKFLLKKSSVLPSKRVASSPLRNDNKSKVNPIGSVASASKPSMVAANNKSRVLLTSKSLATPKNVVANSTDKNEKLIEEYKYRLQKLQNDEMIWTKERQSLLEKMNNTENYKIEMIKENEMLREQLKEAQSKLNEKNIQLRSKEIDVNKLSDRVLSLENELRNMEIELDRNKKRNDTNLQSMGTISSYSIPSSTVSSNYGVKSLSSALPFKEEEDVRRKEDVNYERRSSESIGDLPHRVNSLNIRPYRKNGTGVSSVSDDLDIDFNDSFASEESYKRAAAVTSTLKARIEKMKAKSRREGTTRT

Chains of the proteins cited; added tags and fusions are not shown. Lines headed by an entry give the natural chain unless they say otherwise; changes in a name come on top.
UniProt P09733: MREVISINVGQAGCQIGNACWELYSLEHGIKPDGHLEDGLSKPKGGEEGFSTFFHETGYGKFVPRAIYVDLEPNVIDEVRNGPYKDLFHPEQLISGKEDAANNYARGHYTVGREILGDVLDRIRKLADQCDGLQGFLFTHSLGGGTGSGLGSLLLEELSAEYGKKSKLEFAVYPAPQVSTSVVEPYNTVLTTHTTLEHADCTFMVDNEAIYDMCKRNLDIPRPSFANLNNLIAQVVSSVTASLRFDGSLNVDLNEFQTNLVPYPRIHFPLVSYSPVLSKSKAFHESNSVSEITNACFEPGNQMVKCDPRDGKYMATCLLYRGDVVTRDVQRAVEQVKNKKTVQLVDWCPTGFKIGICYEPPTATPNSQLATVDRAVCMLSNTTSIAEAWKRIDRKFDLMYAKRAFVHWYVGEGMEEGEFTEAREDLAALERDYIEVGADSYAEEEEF

[2] = target: T2, Stu2-HA (wild-type Stu2, 3xHA tagged) (S. cerevisiae) (UniProt P46675)
T2 sequence: T1 sequence with R252K, R469K

[3] = target: T3, Stu2-K252,469Q-3xHA (S. cerevisiae) (UniProt P46675)
T3 sequence: T1 sequence with R252Q, R469Q

- binding [1]: binds
- binding [2]: binds
- binding [3]: binds
Substance: αβ-tubulin heterodimer (from UniProt P09733 1-447; P02557 1-457) (complex)

Source: article PMC9491610
